Patent publication US20220040301A1
These are yes or no findings as the source states them, for the method shown. Some entries that bind do so weakly or less than the wild type.

Protein sequences, listed by entry. Tags and fused reporters are not part of them. Residues count along the entry.
UniProt P05231, residues 30-212: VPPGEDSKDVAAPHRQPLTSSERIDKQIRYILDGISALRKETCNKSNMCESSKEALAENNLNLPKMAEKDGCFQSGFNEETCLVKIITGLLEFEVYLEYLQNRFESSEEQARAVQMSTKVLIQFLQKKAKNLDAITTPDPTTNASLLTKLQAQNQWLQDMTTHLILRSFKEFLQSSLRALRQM

How the values were obtained:
[1] = target: interleukin 6 (IL-6) (UniProt P05231); experiment: IL-6 binding ELISA after 9-12 months at 2-8°C
[2] = target: interleukin 6 (IL-6) (UniProt P05231); experiment: IL-6 binding ELISA and cell based bioassay; 10 and 50 mg/mL
[3] = target: interleukin 6 (IL-6) (UniProt P05231); experiment: IL-6 binding ELISA and HEK Blue Bioassay; long term storage at 5 ± 3°C
[4] = target: interleukin 6 (IL-6) (UniProt P05231); experiment: IL-6 binding ELISA and HEK Blue cell-based bioassay; accelerated and stress storage

Measured: binding

B1: COR-001 antibody (antibody, human IgG1, kappa, V domains shown)
VH: EVQLVESGGGLVQPGGSLRLSCAASGFTISSNYMIWVRQAPGKGLEWVSDLYYYAGDTYYADSVKGRFTMSRDISKNTVYLQMNSLRAEDTAVYYCARWADDHPPWIDLWGRGTLVTVSS
VL: DIQMTQSPSTLSASVGDRVTITCRASQGISSWLAWYQQKPGKAPKVLIYKASTLESGVPSRFSGSGSGTEFTLTISSLQPDDFATYYCQQSWLGGSFGQGTKLEIKR
binds: all assays above
